Molecules are shown by their SMILES. The list shows only some results of the screen, not a fair sample: it gathers tests that were run many times, whatever their T/C, doses with no T/C, and many T/C values between a quarter and a half above the control. Further doses and runs are listed elsewhere. T/C is the treated group as % of the vehicle group. Some entries give survivors of the animals treated and no T/C: the source holds a T/C of zero for them, seemingly a mark for toxic or unscored doses. Some survivor counts are full or nearly so, which does not show that the dose was tolerated: the source hardly ever lists a survival T/C far under the control, and the zero likely stands for such cases as well. Survivors were counted at the toxicity check, usually on the fifth day, unless a day is given; later deaths do not show. Schedules are NCI's codes, taken here to give the interval after Q, in days (D) or hours (H), and the number of doses after X. Where survival is the endpoint, this PubChem deposit counts one and a half times the control or more as active, and values a quarter to a half above the control carry no call in these data; other NCI protocols may use other cut-offs.

Our source for the T/C and survivor count values is PubChem BioAssay AID192 (DTP/NCI, 2004).

The subject of the experiment is BDF1 mice, B16 melanoma ip, median survival T/C. As to the kind of experiment: NCI In Vivo Anticancer Drug Screen. Data for tumor model B16 Melanoma (intraperitoneal) in B6D2F1 (BDF1) mice. The following applies: T/C endpoint: median survival time, higher T/C = longer survival. The procedure, abridged: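 Survival or tumor size is measured after treatment of tumor-bearing mice and normalised to the vehicle-treated control group.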

As for `Cc1[nH]c(=O)[nH]c(=O)c1N(CCF)CCCl`, the T/C is, setting by setting: (dose: 5.0 mg/kg/injection, schedule: Q01DX009 (ip), vehicle: saline with Tween-80) 125 % of control; (dose: 8.0 mg/kg/injection, schedule: Q01DX009 (ip), vehicle: saline with Tween-80) 131 % of control; (dose: 8.4 mg/kg/injection, schedule: Q01DX009 (ip), vehicle: saline with Tween-80) 140 % of control; (dose: 10.0 mg/kg/injection, schedule: Q01DX009 (ip), vehicle: Klucel (hydroxypropylcellulose) (HPC)) 135 % of control; (dose: 16.0 mg/kg/injection, schedule: Q01DX009 (ip), vehicle: acid diluted with saline) 125 % of control. The survivor count by setting is: (dose: 20.0 mg/kg/injection, schedule: Q01DX009 (ip), vehicle: Klucel (hydroxypropylcellulose) (HPC)) 6 of 6; (dose: 23.0 mg/kg/injection, schedule: Q01DX009 (ip), vehicle: saline with Tween-80) 10 of 10; (dose: 32.0 mg/kg/injection, schedule: Q01DX009 (ip), vehicle: acid diluted with saline) 8 of 10; (dose: 32.0 mg/kg/injection, schedule: Q01DX009 (ip), vehicle: saline with Tween-80) 10 of 10; (dose: 39.0 mg/kg/injection, schedule: Q01DX009 (ip), vehicle: saline with Tween-80) 6 of 10; (dose: 40.0 mg/kg/injection, schedule: Q01DX009 (ip), vehicle: Klucel (hydroxypropylcellulose) (HPC)) 6 of 6. The survivor count is, setting by setting: (dose: 64.0 mg/kg/injection, schedule: Q01DX009 (ip), vehicle: acid diluted with saline) 4 of 10; (dose: 64.0 mg/kg/injection, schedule: Q01DX009 (ip), vehicle: saline with Tween-80) 1 of 10; (dose: 64.0 mg/kg/injection, schedule: Q04DX003 (ip), vehicle: acid diluted with saline) 9 of 10; (dose: 64.0 mg/kg/injection, schedule: Q04DX003 (ip), vehicle: saline with Tween-80) 5 of 10; (dose: 80.0 mg/kg/injection, schedule: Q01DX009 (ip), vehicle: Klucel (hydroxypropylcellulose) (HPC)) 2 of 6; (dose: 128.0 mg/kg/injection, schedule: Q01DX009 (ip), vehicle: acid diluted with saline) 0 of 10. The survivor count (dose: 128.0 mg/kg/injection, schedule: Q01DX009 (ip), vehicle: saline with Tween-80) is given as 0 of 10; the survivor count (dose: 128.0 mg/kg/injection, schedule: Q04DX003 (ip), vehicle: acid diluted with saline) is reported as 10 of 10; the survivor count (dose: 128.0 mg/kg/injection, schedule: Q04DX003 (ip), vehicle: saline with Tween-80) was 0 of 10; the survivor count (dose: 256.0 mg/kg/injection, schedule: Q04DX003 (ip), vehicle: acid diluted with saline) is given as 7 of 10; the survivor count (dose: 256.0 mg/kg/injection, schedule: Q04DX003 (ip), vehicle: saline with Tween-80) is given as 0 of 10.
